According to the supplement of paper PMC3334620:
Over roughly 33,000 sequences, “E-score (-0.5 to 0.5)” has its median near -8e-05; the highest 2% begin near 0.23. The list shows a part of the results.

target: T1, Nrg2 (UniProt P38082); assay: PBM E-score (8-mer binding enrichment) (E-score (-0.5 to 0.5)); higher = stronger / more preferred TF binding; settings: protein concentration: 100 nM; construct: GST-full length
T1 sequence: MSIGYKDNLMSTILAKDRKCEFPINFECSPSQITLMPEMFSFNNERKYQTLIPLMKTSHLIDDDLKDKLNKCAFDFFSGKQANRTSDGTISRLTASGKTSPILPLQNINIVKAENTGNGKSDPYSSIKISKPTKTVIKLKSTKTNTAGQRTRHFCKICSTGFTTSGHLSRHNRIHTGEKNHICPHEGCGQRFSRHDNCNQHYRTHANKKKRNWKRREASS
In short: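 Bound GST-tagged yeast transcription factors, applied at about 100-200 nM to double-stranded universal all-10-mer Agilent arrays, were detected with fluorescent anti-GST. Scans were normalised with masliner. A modified Wilcoxon-Mann-Whitney statistic, the E-score, was assigned to each ungapped eight-base word pooled with its reverse complement by the Universal PBM Analysis Suite.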

Sequence	PBM E-score
CTTAATGA	0.0652
AAATTTAT	0.114
CCGACTAG	-0.124
TTCACCAA	0.0351
GCATTTCC	0.119
GTCCAGGA	-0.0805
AATCACGG	0.145
GATCTTCC	-0.177
AGTATCAC	-0.0665
CCACACGG	0.0193
ATGCGGAA	0.0661
GTCGTACA	0.099
GAGATTTA	-0.1
CGGCACAG	0.069
AACACTAC	0.0505
CACTATGC	0.0832
AGAATCGC	-0.0179
CCGCGAAA	0.0786
CAAAGCTA	-0.00225
ACGCCAAA	-0.108
ACTTAATA	0.0629
AGCCGTGC	-0.246
GGATTGAC	0.103
ACAACCAA	0.124
GAGCATAC	-0.154

Fetched one by one from the entries so far:
Sequence	PBM E-score
TTCACCAA	0.0351
AGTATCAC	-0.0665

(further entries)

Sequence	PBM E-score
AAAGCTTA	0.00538
AGTCCCAC	-0.079
CGAATTCC	0.125
ATGCAATA	-0.00957
TCACTTCA	-0.139
GCAACAAC	-0.00266
CGAAATAA	0.156
AGCACCGG	-0.148
GGTGTAGA	0.0243
GCCTGGCA	-0.327
ATCTCCAC	-0.0729
AATAAAAT	0.0899
AAGCGTTC	-0.0849
GATTCCCA	0.107
AGACATCT	-0.0442
AGCATCCT	-0.0388
GGAGCGTA	-0.0749
ACAAATAT	0.114
TCTCTCAA	0.14
AGACAACA	0.0138
AAGACACC	0.0281
ATTAGTCC	0.139
AAACTAAC	0.157
ACTCGTTA	-0.145
CTGGTAAG	-0.0923

Three entries from above in a different format.

| Sequence | PBM E-score |
| --- | --- |
| ATGCAATA | -0.00957 |
| TCACTTCA | -0.139 |
| GCAACAAC | -0.00266 |

More records.

Sequence	PBM E-score
ACATATTA	0.223
AAGAGGAA	-0.0422
AGGTTTGA	-0.0326
ATGTGTGG	0.0214
GATGCGCA	0.0768
GGCGGTAC	-0.0721
TCAGCGCA	-0.0558
CTAGAATC	-0.0115
GCTTGGCC	-0.06
CTTTAAAG	-0.0201
CATGTCAG	0.128
CTGTCACC	-0.164
GAAGCCTA	-0.14
AGTTGACG	0.0891
AGTGAGCC	0.00986
GATCAAAC	0.0743
CATCACTC	-0.101
TCAGCCCA	0.0927
ATCGTCAT	0.109
CACTAACA	0.076
CGTTTCAC	-0.00605
ACACGAAC	0.0826
CCTTCAAC	-0.128
ACGACTGG	-0.184
CCTGCCTC	-0.141

Sequence	PBM E-score
CCCGTACG	-0.0853
CGGGGCAA	-0.0179
AGACTATA	0.124
AATTTCCT	0.029
CAGGATCC	0.0919
TTAGAGAA	-0.271
CGCTTGCC	-0.0352
CACGGACG	0.0471
CAATTAAA	0.176
CGACGTCA	0.0858
AGTAAACC	-0.0693
ACCGAAGT	0.129
CGGACACA	-0.0544
GGGAGGAC	0.0465
CCCTCAGA	-0.0586
ATGCCTCC	-0.18
GAACCCCC	-0.322
AATAGTCC	-0.0226
GGGGCAAA	-0.006
GCCGAAGA	-0.00219
GCCTAGCA	-0.294
ACTGCAAC	-0.0824
GACATGTA	0.183
AAATGCCT	-0.141
CATCTAAA	-0.00644

Sequence	PBM E-score
AATATCCT	-0.0359
ATCCGGTC	-0.215
GTCCATAA	-0.0698
CCGGTCAG	-0.145
ACTAGGTG	-0.0507
AGCGCCCA	-0.12
GTCCGCTA	0.0262
GAAGTGAA	0.115
GCGCCGCA	0.119
ATTAGGTA	-0.0233
ATCTCCCA	0.18
GCATAGGA	-0.0999
ATCTTACC	-0.07
GCGCATAA	0.0999
CAGAGTAC	-0.112
CACGCATA	0.0227
AGAATCTG	0.00944
GCTAAAAA	-0.154
ACGTCTTA	-0.132
CCGCGGCC	0.128
GACGGGCC	-0.254
TAACTAAA	0.00653
CGCTGCCG	-0.168
AGCGTTTA	-0.227
TGCCTAAA	-0.045

Sequence	PBM E-score
CAACGCTG	-0.0638
AGTGCTCC	-0.213
CGAACCAC	0.0233
AACCGATT	-0.0154
GTAAATCA	0.24
AAAATGTT	-0.0675
GCTGGACC	0.0106
GAGTAATC	0.0241
ATGTATCA	0.172
AGAATCAG	0.272
CAGGCATA	0.0335
GATAGCAC	-0.0654
GACTGCTC	-0.00531
TCCCACCA	-0.206
GAAGCCGC	0.0222
CGGAACAG	-0.113
AAGTACGA	0.069
GGGACGGA	-0.165
CACACTAA	0.21
AAGGGTGA	0.0471
CCGTCTCC	-0.16
CAGGAGCG	-0.0313
GTGAGCGA	0.0524
AGGCTGAA	-0.0879
GACCGTGC	-0.0878

Sequence	PBM E-score
AGAGACCC	-0.0602
ACTCGTAT	0.0397
CTCGGGCC	-0.0126
CAATGGAC	0.0884
ACTTAACT	0.097
CTGGGCTC	-0.174
GAGCGAAA	0.127
CGAGTCCA	-0.256
CCCAGACC	-0.0336
ACCACAAC	0.129
ATTTAGCG	-0.0848
GACTGCTA	-0.0675
CCGCCCAG	-0.0404
ACTGCATA	0.0348
TTAGCCAA	0.0804
TAACAGAA	0.0398
CGCACCCC	-0.0111
CGTTCGCA	-0.166
CCGGGTAG	0.0243
CGTAACGA	-0.0604
ACTGCGGC	-0.0944
GCTGGGAA	-0.00487
